# Test: Fluorescence intensity and detection sensitivity of fluorescent dyes excited by argon laser
# Assay type: physicochemical
# Conditions: excited by argon laser at 488 nm and 514 nm
Structure (SMILES),detection sensitivity,order of fluorescence intensities
"O=C(ON1C(=O)CCC1=O)c1ccc(C2=c3cc4c5c(c3Oc3c2cc2c6c3CCCN6CCC2)CCC[N+]=5CCC4)c(C(=O)[O-])c1 [XR, 5-carboxy-X-rhodamine succinimide ester]",about 800 amol,"R110, R6G>TMR>XR"
"CN(C)c1ccc2c(c1)Oc1cc(N(C)C)ccc1C21OC(=O)c2cc(C(=O)ON3C(=O)CCC3=O)ccc21 [TMR, 5-carboxytetramethylrhodamine succinimide ester]",about 400 amol,"R110, R6G>TMR>XR"
"Nc1ccc2c(-c3cc(C(=O)ON4C(=O)CCC4=O)ccc3C(=O)O)c3ccc(N)cc3[o+]c2c1.O=C(O)C(F)(F)F.O=C([O-])C(F)(F)F [R110, 5-carboxyrhodamine 110-bis-trifluoroacetate succinimide ester]",about 40 amol,"R110, R6G>TMR>XR"
"CCNc1cc2c(cc1C)C1(OC(=O)c3cc(C(=O)ON4C(=O)CCC4=O)ccc31)c1cc(C)c(NCC)cc1O2 [R6G, 5-carboxyrhodamine 6G succinimide ester]",about 40 amol,"R110, R6G>TMR>XR"
